Test results reported in paper PMC9440028 (Scientific Reports, 2022).
Some peptides are written in HELM: one residue between dots, names in brackets for other building blocks, links after the first $.

Assay: general procedure: Fmoc solid-phase peptide synthesis; HBTU/HOBt/DIPEA
Details: hydrotrifluoroacetate (TFA salt); for final HPLC purity: 220 nm
[1] = whole synthesis, scale 0.081 mmol
[2] = whole synthesis, scale 0.034 mmol
[3] = whole synthesis, scale 0.158 mmol
[4] = whole synthesis, scale 0.060 mmol

Question: Which “final HPLC purity” value (conjugation step) does the source give for “PEPTIDE1{R.[XArgMh7cee8a].P.Y.[XTlehafc99a].L}$$$$V2.0” here?
Answer: > 99%

Question: And the conjugation yield (conjugation step)?
Answer: 77%

Question: Which “final HPLC purity” value (whole synthesis) does the source give for “PEPTIDE1{R.[XArgMh944cee].P.Y.[XTlehafc99a].L}$$$$V2.0” here?
Answer: > 99%

Question: And the isolated mass [1]?
Answer: 38.7 mg

Question: What about the isolated yield [1] of the same substance?
Answer: 37%

Question: Which “final HPLC purity” value (conjugation step) does the source give for “PEPTIDE1{[XArgMh7cee8a].R.P.Y.[XTlehafc99a].L}$$$$V2.0” here?
Answer: > 99%

Question: And the conjugation yield (conjugation step)?
Answer: 45%

Question: For “PEPTIDE1{[XArgMh9d1d49].R.P.Y.[XTlehafc99a].L}$$$$V2.0”, which “final HPLC purity” value (conjugation step) is on record?
Answer: > 99%

Question: What about the conjugation yield (conjugation step) of the same substance?
Answer: 25%

Question: With “PEPTIDE1{[XArgMh107bc3].R.P.Y.[XTlehafc99a].L}$$$$V2.0” as the substance, how does the “final HPLC purity” value (conjugation step) read?
Answer: 98%

Question: What about the conjugation yield (conjugation step) of the same substance?
Answer: 79%

Question: What does the source list for “PEPTIDE1{[XArgMh944cee].R.P.Y.[XTlehafc99a].L}$$$$V2.0”?
Answer: final HPLC purity (whole synthesis): > 99%; isolated mass [2]: 16.9 mg; isolated yield [2]: 39%

Question: Which results are given for “PEPTIDE1{[XArgMh14679e].R.P.Y.[XTlehafc99a].L}$$$$V2.0”?
Answer: final HPLC purity (purification step): 97%; final HPLC purity (whole synthesis): 95%; isolated mass [3]: 108.1 mg; isolated yield [3]: 49%

Question: For “PEPTIDE1{[XArgMh072038].R.P.Y.[XTlehafc99a].L}$$$$V2.0”, which “final HPLC purity” value (late stage modification step) is on record?
Answer: 99%

Question: What about the step yield (late stage modification step) of the same substance?
Answer: 90%

Question: With “PEPTIDE1{[XArgMhd0e5d3].R.P.Y.[XTlehafc99a].L}$$$$V2.0” as the substance, how does the “final HPLC purity” value (late stage modification step) read?
Answer: 96%

Question: What about the step yield (late stage modification step) of the same substance?
Answer: 59%

Question: With “PEPTIDE1{[XArgMhea3a9e].R.P.Y.[XTlehafc99a].L}$$$$V2.0” as the substance, how does the “final HPLC purity” value (whole synthesis) read?
Answer: 98%

Question: What about the isolated yield (whole synthesis, overall, scale 0.2212 mmol) of the same substance?
Answer: 45%

Question: What about the isolated mass (whole synthesis, scale 0.2212 mmol) of the same substance?
Answer: 139.5 mg

Question: For “PEPTIDE1{[XNMeRh0fabbf].[XArgMh7cee8a].P.Y.[XTlehafc99a].L}$$$$V2.0”, which “final HPLC purity” value (conjugation step) is on record?
Answer: 98%

Question: What about the conjugation yield (conjugation step) of the same substance?
Answer: 68%

Question: For “PEPTIDE1{[XNMeRh0fabbf].[XArgMh944cee].P.Y.[XTlehafc99a].L}$$$$V2.0”, which “final HPLC purity” value (whole synthesis) is on record?
Answer: > 99%

Question: And the isolated mass [4]?
Answer: 44 mg

Question: And the isolated yield [4]?
Answer: 57%
